Measurements taken from EP4445957A1, “ANTIBACTERIAL COVALENT PEPTIDE INHIBITORS” (priority 2023, dated 2024).
Not every detail of the peptide structures is certain; ends, links or a residue may be inferred. Square brackets hold non-standard residues; d marks the D form. Peptide text beside a SMILES is read from it. * marks the point of attachment. Cha = N[C@@H](CC1CCCCC1)C(=O)O; Dap = NC[C@H](N)C(=O)O; BrAc = O=C(CBr)*

Amino acid sequences for entries named in this document (tags omitted).
UniProt P0A988, whole entry H175G: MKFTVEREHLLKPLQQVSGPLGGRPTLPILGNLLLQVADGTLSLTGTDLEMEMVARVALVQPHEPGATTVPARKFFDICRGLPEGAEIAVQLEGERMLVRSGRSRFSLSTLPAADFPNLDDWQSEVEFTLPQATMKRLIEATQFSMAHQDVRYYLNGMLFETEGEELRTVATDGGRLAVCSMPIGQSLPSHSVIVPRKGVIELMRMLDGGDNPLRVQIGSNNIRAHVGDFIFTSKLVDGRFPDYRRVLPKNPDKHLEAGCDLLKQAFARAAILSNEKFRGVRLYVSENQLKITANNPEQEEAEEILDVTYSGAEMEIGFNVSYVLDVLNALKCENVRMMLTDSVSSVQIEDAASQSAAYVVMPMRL

Assays:
EcH175GSC = EcH175GSC (Escherichia coli, UniProt P0A988, H175G); assay: Isothermal Titration Calorimetry (ITC/kinITC), H175G mutant sliding clamp; assay type: binding, E. coli; details: for -TΔS / ΔG / ΔH: 25 °C (298.15K)
Method: (§1) ITC experiments were performed using an iTC200 or a PEAQ-ITC instrument (Microcal Malvern Panalytical). Peptides (300 or 600 µM) were titrated at 25 °C by sequential injections (usually 2 µL each) into an SC solution (30 or 60 µM). Data were corrected for the heat of injection by subtracting the signal of the titration of peptides into protein-free buffer solution either R1 buffer ([4-(2-hydroxyethyl)piperazine-1-ethanesulfonic acid (HEPES) 10 mM pH 7.4, NaCl 0.15 M, EDTA 3 mM] or AcNH4 pH7.4, 150 mM). Each titration was performed at least twice: the exact number of the experiments performed with each peptide is indicated in Tables 1-6. Reported data are mean values (± SD) of all experiments. Analyses of the experimental data were performed, following a classical treatment with AFFINImeter software (https://www.affinimeter.com; S4S, Santiago de Compostela, Spain). In addition, kinetic information was obtained in some cases with kinITC as implemented in software AFFINImeter (D. Burnouf et al., J. Am. Chem. Soc. 2012, 134, 559-565; and P. Dumas et al., in Methods Enzymol., Elsevier, 2016, pp. 157-180).

EcwtSC = EcwtSC (Escherichia coli, UniProt P0A988); assay: Isothermal Titration Calorimetry (ITC/kinITC), wild-type sliding clamp; assay type: binding, E. coli
Method: as §1, with “Peptides (300 or 600 µM) were titrated at 25 °C by sequential injections (usually 2 µL each) into an SC solution (30 or 60 µM).” left out

EcSC = target: T1, EcSC (Escherichia coli, UniProt P0A988); assay: Covalent adduct formation monitored by mass spectrometry, kinetic constants kinact; assay type: biochemical, E. coli; details: reaction monitored by mass spectrometry
T1 construct: compatible with the molecular weight of ^EcSC monomer (40.6 kDa); endogenous in cells; host or cells: E. coli whole cell lysate
Method: Overall, no major effect of the incorporation of the warheads on the binding affinity was observed on the whole series of the TCls. […] Then, kinetic constants (kinact) of compounds 1 and 2 were determined at 22°C and 37°C (Table 7, entries 4 and 7).

[1] = buffer AcNH4 pH 7.4, 150 mM, 295.15 K (22 °C)
[2] = buffer AcNH4 pH 7.4, 150 mM, 310.15 K (37 °C)
[3] = buffer R1 (X 1), 295.15 K (22 °C)
[4] = buffer R1 (X 1), 310.15 K (37 °C)
[5] = H175G SC mutant compared to EcwtSC
[6] = H175G SC mutant compared to EcwtSC, R1 buffer, 25 °C

SMILES | -TΔS (EcH175GSC; R1 buffer) | ΔG (EcH175GSC; R1 buffer) | ΔH (EcH175GSC; R1 buffer) | -TΔS (EcwtSC; R1 buffer, 25 °C (298.15K)) | ΔG (EcwtSC; R1 buffer, 25 °C (298.15K)) | ΔH (EcwtSC; R1 buffer, 25 °C (298.15K)) | -TΔS (EcwtSC; [1]) | ΔG (EcwtSC; [1]) | ΔH (EcwtSC; [1]) | -TΔS (EcwtSC; [2]) | ΔG (EcwtSC; [2]) | ΔH (EcwtSC; [2]) | -TΔS (EcwtSC; [3]) | ΔG (EcwtSC; [3]) | ΔH (EcwtSC; [3]) | -TΔS (EcwtSC; [4]) | ΔG (EcwtSC; [4]) | ΔH (EcwtSC; [4]) | further results
CC(=O)N[C@@H](CCC(N)=O)C(=O)N[C@@H](CC1CCCCC1)C(=O)N[C@@H](CNC(=O)CBr)C(=O)N[C@@H](CC(C)C)C(=O)N[C@@H](Cc1ccccc1)C(=O)O [Peptide 4, Ac-Gln-Cha-Dap(bromoacetamide)-Leu-Phe-OH] (Ac-Q[Cha][Dap](BrAc)LF-OH) | 0.06 (0.28) kcal/mol | -8.4 (±0.1) kcal/mol | -8.43 (±0.2) kcal/mol | 3.0 (± 1.6) kcal/mol | -9.1 (± 0.4) kcal/mol | -12.1 (± 1.4) kcal/mol | 4 (± 1) kcal/mol | -9.4 (± 0.1) kcal/mol | -13.4 (± 1.0) kcal/mol | 10.3 (± 0.7) kcal/mol | -9.3 (± 0.1) kcal/mol | -19.6 (± 0.6) kcal/mol | 2.1 (± 1.0) kcal/mol | -9.5 (± 0.2) kcal/mol | -11.6 (± 1.1) kcal/mol | 9.1 (± 2.9) kcal/mol | -9.32 (± 0.08) kcal/mol | -18.4 (± 2.9) kcal/mol | formation of covalent adducts (EcSC): form covalent adducts
CC(=O)N[C@@H](CCC(N)=O)C(=O)N[C@@H](CC1CCCCC1)C(=O)N[C@@H](CC(=O)O)C(=O)N[C@@H](CC(C)C)C(=O)N[C@@H](Cc1ccccc1)C(=O)O [Peptide 12, reference compound] (Ac-Q[Cha]DLF-OH) | 3.9 (±1.2) kcal/mol | -7.7 (±0.3) kcal/mol | -11.7 (±1.2) kcal/mol | 6.4 (± 1.7) kcal/mol | -9.3 (± 0.2) kcal/mol | -15.6 (± 1.8) kcal/mol | 2.5 (± 0.2) kcal/mol | -9.1 (± 0.1) kcal/mol | -11.6 (± 0.2) kcal/mol | 5.7 (± 0.1) kcal/mol | -8.96 (± 0.02) kcal/mol | -14.6 (± 0.1) kcal/mol | 3.8 (± 0.6) kcal/mol | -9.3 (± 0.1) kcal/mol | -13.6 (± 0.6) kcal/mol | 8.01 (± 0.49) kcal/mol | -8.89 (± 0.01) kcal/mol | -16.9 (± 0.4) kcal/mol | change of KD / reduction of the affinity (EcH175GSC; EcH175GSC compared to EcwtSC, R1 buffer, 25 °C): 14 fold; change in the koff value (EcH175GSC; [5]): threefold increase; change of the kon value (EcH175GSC; [5]): threefold reduction; effect on the ΔG value (EcH175GSC; [6]): 1.5 kcal/mol; ΔΔH (ΔH reduction) (EcH175GSC; [6]): 3.9 kcal/mol
